For at least one compound, name, drawing or mass did not settle the structure. Some results were stated once for a whole list of compounds, not compound by compound.
Tests used:
[1] = Physical stability of aqueous corticosteroid solutions (ethanol stock added to saline or x-ray contrast agent); conditions: 3.2 mg/10 ml in Ultravist, drug added in ethanol
[2] = tested on: cerebral hypoxia-ischemia plus unilateral carotid artery ligation; conditions: pre-treatment 0.5 mg/kg b.w./day for three days; 3 hours of cerebral hypoxia-ischemia, seven days old rats; cited from earlier work
[3] = tested on: stroke; conditions: intravenous and intramuscular, 15 steroid-treated patients; cited from earlier work
[4] = tested on: cerebral ischemia; conditions: intravenous 30 mg/kg b.w. over 15 minutes, then 5.4 mg/kg b.w./h for 23 hours, 30 minutes after onset; cats surviving 4 days; cited from earlier work
[5] = tested on: focal ischemia; conditions: 105 mg/kg b.w. intraarterially, spontaneously hypertensive rats; cited from earlier work

**Q.** With CC1(C)O[C@@H]2C[C@H]3[C@@H]4CCC5=CC(=O)C=C[C@]5(C)[C@@]4(F)[C@@H](O)C[C@]3(C)[C@]2(C(=O)CO)O1 [Triamcinolone acetonide] as the compound, how does the “time solution remained physically stable” value [1] read?
**A.** at least 24 hours

**Q.** What does the source list for C[C@@H]1C[C@H]2[C@@H]3CCC4=CC(=O)C=C[C@]4(C)[C@@]3(F)[C@@H](O)C[C@]2(C)[C@@]1(O)C(=O)CO [Dexamethasone, dexamethasone]?
**A.** effect on cerebral damage [2]: may prevent subsequent cerebral damage; time solution remained physically stable [1]: at least 24 hours; difference versus placebo (clinical benefit) [3]: not statistically significant

**Q.** With C[C@H]1C[C@@H]2[C@H]([C@@H](O)C[C@@]3(C)[C@H]2CC[C@]3(O)C(=O)CO)[C@@]2(C)C=CC(=O)C=C12 [methylprednisolone] as the compound, how does the “effect on infarction volume and cerebral blood flow drop” value [4] read?
**A.** may significantly reduce infarction volume and cerebral blood flow drop

**Q.** What about the “effect on infarction volume” value [5] of the same compound?
**A.** decreased infarction volume following temporary, but not permanent, focal ischemia

— US20070004692A1, “Preparations and therapy of intrathecal inflammatory disease” (priority 2005, published 2007)
